PubChem BioAssay AID1159584 | Peter MacCallum Cancer Centre, 2016

Aim: 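Knock-downs that harm CDH1-null cells more than parental MCF10A cells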 (primary screen)
Cell system: human MCF10A breast epithelial cells, parental and CDH1-null
Knock-down reagent: siRNA against human genes
Measurement: 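ATP luminescence (CellTiter-Glo) viability per line relative to mean mock wells over all plates, and the ratio of CDH1-null to parental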
Scale: CDH1-null / parental viability ratio: higher = CDH1-null cells survive relatively better than parental; CDH1-null viability vs mock: higher = more viable CDH1-null cells; parental viability vs mock: higher = more viable parental cells
The deposit covers about 18,000 reagents; shown is a random part of them. Not stated in the record: the amount of reagent, the time to read-out.

| gene knocked down | PubChem SID | CDH1-null / parental viability ratio | CDH1-null viability vs mock (fraction of mock) | parental viability vs mock (fraction of mock) |
| --- | --- | --- | --- | --- |
| MEX3C (mex-3 RNA binding family member C) | SID135621287 | 1.02 | 1.04 | 1.02 |
| DPY19L3 (dpy-19 like C-mannosyltransferase 3) | SID134328892 | 0.74 | 0.48 | 0.65 |
| RIOX1 (ribosomal oxygenase 1) | SID152151013 | 1.1 | 0.79 | 0.72 |
| SCGB1D4 (secretoglobin family 1D member 4) | SID134329455 | 0.97 | 1.02 | 1.05 |
| WNT7A (Wnt family member 7A) | SID134313410 | 1 | 0.9 | 0.9 |
| WHR1 (winged helix repair factor 1) | SID152154332 | 0.75 | 0.78 | 1.04 |
| TIMM17A (translocase of inner mitochondrial membrane 17A) | SID135622384 | 0.98 | 0.92 | 0.94 |
| HAGH (hydroxyacylglutathione hydrolase) | SID135622247 | 0.82 | 0.7 | 0.85 |
| HMGXB4 (HMG-box containing 4) | SID152147366 | 1.23 | 1.18 | 0.96 |
| FBXL21P (F-box and leucine rich repeat protein 21, pseudogene) | SID135622317 | 0.88 | 0.56 | 0.64 |
| ATP11C (ATPase phospholipid transporting 11C (ATP11C blood group)) | SID152148814 | 1 | 0.9 | 0.9 |
| ZNF100 (zinc finger protein 100) | SID152150680 | 1.55 | 0.93 | 0.6 |
| IL17RB (interleukin 17 receptor B) | SID152154993 | 1.04 | 1.01 | 0.97 |
| SF3B5 (splicing factor 3b subunit 5) | SID134318812 | 1.38 | 0.55 | 0.4 |
| CCDC93 (CCC complex scaffolding subunit CCDC93) | SID152148988 | 0.74 | 0.52 | 0.7 |
| HMOX1 (heme oxygenase 1) | SID135621187 | 0.93 | 1.05 | 1.13 |
| ANKH (ANKH inorganic pyrophosphate transport regulator) | SID134317148 | 0.87 | 0.8 | 0.92 |
| ADAP2 (ArfGAP with dual PH domains 2) | SID135623987 | 1.22 | 0.88 | 0.72 |
| PRR36 (proline rich 36) | SID152147439 | 1.12 | 0.96 | 0.86 |
| HNRNPA0 (heterogeneous nuclear ribonucleoprotein A0) | SID152150547 | 0.87 | 0.87 | 1 |
| SULT4A1 (sulfotransferase family 4A member 1) | SID152155260 | 0.98 | 0.9 | 0.92 |
| NKX6-1 (NK6 homeobox 1) | SID135623909 | 1.02 | 0.94 | 0.92 |
| PNMA2 (PNMA family member 2) | SID152156619 | 1.22 | 1.07 | 0.88 |
| CNGA3 (cyclic nucleotide gated channel subunit alpha 3) | SID152156764 | 1.18 | 1.03 | 0.87 |
| NFE2 (nuclear factor, erythroid 2) | SID134314697 | 1.1 | 0.99 | 0.9 |
| EPM2A (EPM2A glucan phosphatase, laforin) | SID152147762 | 1.11 | 0.82 | 0.74 |
| APRT (adenine phosphoribosyltransferase) | SID135621180 | 1.08 | 0.82 | 0.76 |
| PCDHB12 (protocadherin beta 12) | SID135622551 | 1.6 | 0.88 | 0.55 |
| HAND2 (heart and neural crest derivatives expressed 2) | SID135621621 | 0.84 | 0.48 | 0.57 |

9 successive records from above, quoted:
| gene knocked down | PubChem SID | CDH1-null / parental viability ratio | CDH1-null viability vs mock (fraction of mock) | parental viability vs mock (fraction of mock) |
| --- | --- | --- | --- | --- |
| FBXL21P (F-box and leucine rich repeat protein 21, pseudogene) | SID135622317 | 0.88 | 0.56 | 0.64 |
| ATP11C (ATPase phospholipid transporting 11C (ATP11C blood group)) | SID152148814 | 1 | 0.9 | 0.9 |
| ZNF100 (zinc finger protein 100) | SID152150680 | 1.55 | 0.93 | 0.6 |
| IL17RB (interleukin 17 receptor B) | SID152154993 | 1.04 | 1.01 | 0.97 |
| SF3B5 (splicing factor 3b subunit 5) | SID134318812 | 1.38 | 0.55 | 0.4 |
| CCDC93 (CCC complex scaffolding subunit CCDC93) | SID152148988 | 0.74 | 0.52 | 0.7 |
| HMOX1 (heme oxygenase 1) | SID135621187 | 0.93 | 1.05 | 1.13 |
| ANKH (ANKH inorganic pyrophosphate transport regulator) | SID134317148 | 0.87 | 0.8 | 0.92 |
| ADAP2 (ArfGAP with dual PH domains 2) | SID135623987 | 1.22 | 0.88 | 0.72 |

Additional entries follow.
| gene knocked down | PubChem SID | CDH1-null / parental viability ratio | CDH1-null viability vs mock (fraction of mock) | parental viability vs mock (fraction of mock) |
| --- | --- | --- | --- | --- |
| UBE2G1 (ubiquitin conjugating enzyme E2 G1) | SID152153337 | 1.05 | 0.86 | 0.82 |
| MSH6 (mutS homolog 6) | SID152149194 | 0.85 | 0.92 | 1.08 |
| SPRED3 (sprouty related EVH1 domain containing 3) | SID135625436 | 0.76 | 0.52 | 0.68 |
| CHI3L2 (chitinase 3 like 2) | SID135622353 | 1.07 | 0.92 | 0.86 |
| USP14 (ubiquitin specific peptidase 14) | SID152150087 | 1.42 | 0.74 | 0.52 |
| LGALS13 (galectin 13) | SID134321153 | 1.01 | 0.83 | 0.82 |
| AP2B1 (adaptor related protein complex 2 subunit beta 1) | SID135620712 | 0.97 | 0.74 | 0.76 |
| USP12 (ubiquitin specific peptidase 12) | SID134326762 | 1.14 | 0.84 | 0.74 |
| IRF2BPL (interferon regulatory factor 2 binding protein like) | SID134312167 | 0.84 | 0.74 | 0.88 |
| EOMES (eomesodermin) | SID134321417 | 0.92 | 0.88 | 0.96 |
| SERTAD2 (SERTA domain containing 2) | SID152152754 | 1.27 | 0.38 | 0.3 |
| VPREB3 (V-set pre-B cell surrogate light chain 3) | SID135622589 | 1.16 | 0.79 | 0.68 |
| ADAM10 (ADAM metallopeptidase domain 10) | SID152150610 | 1.22 | 0.78 | 0.64 |
| RNF214 (ring finger protein 214) | SID152149596 | 0.84 | 0.72 | 0.86 |
| BMERB1 (bMERB domain containing 1) | SID134319138 | 1.49 | 0.88 | 0.59 |
| DENND1B (DENN domain containing 1B) | SID134324179 | 1.03 | 0.78 | 0.76 |
| DENND1B (DENN domain containing 1B) | SID135623237 | 1.01 | 0.85 | 0.84 |
| KLRC4 (killer cell lectin like receptor C4) | SID135622563 | 1.1 | 0.9 | 0.82 |
| MEI1 (meiotic double-stranded break formation protein 1) | SID135624463 | 1.08 | 0.82 | 0.76 |
| PSMC4 (proteasome 26S subunit, ATPase 4) | SID152148107 | 0.81 | 0.34 | 0.42 |
| AMPD1 (adenosine monophosphate deaminase 1) | SID134314585 | 1.24 | 1.23 | 0.99 |
| CASTOR1 (cytosolic arginine sensor for mTORC1 subunit 1) | SID135625422 | 1.24 | 0.94 | 0.76 |
| TRIAP1 (TP53 regulated inhibitor of apoptosis 1) | SID134324450 | 0.78 | 0.64 | 0.82 |
| KBTBD6 (kelch repeat and BTB domain containing 6) | SID135623021 | 0.84 | 0.92 | 1.09 |
| TNFRSF6B (TNF receptor superfamily member 6b) | SID134313028 | 1.3 | 1.07 | 0.82 |
| C10orf95 (chromosome 10 open reading frame 95) | SID134318644 | 0.7 | 0.62 | 0.88 |
| LINC00336 (long independently transcribed non-coding RNA 336) | SID135625093 | 0.81 | 0.71 | 0.88 |
| IGSF3 (immunoglobulin superfamily member 3) | SID135623788 | 1.13 | 0.89 | 0.79 |
| CCL4L1 (C-C motif chemokine ligand 4 like 1) | SID152148658 | 0.83 | 0.7 | 0.84 |
| TBX2 (T-box transcription factor 2) | SID134316485 | 1.03 | 1.15 | 1.12 |
| GUCY2D (guanylate cyclase 2D, retinal) | SID135620972 | 1.1 | 0.64 | 0.58 |
| NECTIN1 (nectin cell adhesion molecule 1) | SID135620807 | 1.14 | 0.96 | 0.84 |
| SLC45A1 | SID152150672 | 0.91 | 0.5 | 0.55 |
| ACIN1 (apoptotic chromatin condensation inducer 1) | SID152156440 | 1.23 | 1.08 | 0.88 |
| HHIPL2 (HHIP like 2) | SID135623173 | 0.8 | 0.86 | 1.08 |
| HCP5 (HLA complex P5) | SID134323803 | 1.21 | 0.94 | 0.78 |
| EXOC2 (exocyst complex component 2) | SID152151170 | 1.41 | 1.04 | 0.74 |
| UBL4A (ubiquitin like 4A) | SID135624021 | 1.35 | 1.13 | 0.84 |
| GARIN5A (golgi associated RAB2 interactor 5A) | SID135625212 | 1.5 | 0.84 | 0.56 |
